{"source": "PubChem BioAssay AID1259308 (NCATS, 2017)", "aim": "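Genes whose loss raises luciferase production in HEK293 cells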 (primary screen)", "cells": "human HEK293 embryonic kidney cells stably expressing firefly luciferase (HEK-CMV-Luc2-Hygro)", "knock-down reagent": "single siRNA against human genes, 0.8 pmol siRNA per well", "time to read-out": "72 h", "measured": "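Reporter luminescence and viable-cell signal on separate replicate plates, given as percent of non-targeting control and median/MAD z-scores, plus per-cell luciferase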", "direction": "total luciferase, z-score: higher = more reporter protein produced", "active means": "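Active when the median/MAD z-score for overall luciferase is greater than 3; a gene was taken forward for validation with new siRNAs if at least two of its three siRNAs passed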", "calls": "active = raised luciferase; inactive = no rise", "note": "The whole screen tested about 59,000 reagents; this is a random part of them. About 1,510 of them (2.6%) were called active. 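Calls use total luciferase alone and ignore viability, so some active siRNAs may act by altering cell number.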 A number with no mark means an inactive call. Reagents against one gene are numbered here. Further read-outs or replicates are left out here. No sequences are given here."}
{"target": "NSFP1 (N-ethylmaleimide-sensitive factor pseudogene 1)", "reagent no.": 1, "total luciferase, z-score": -1.16}
{"target": "NSFP1 (N-ethylmaleimide-sensitive factor pseudogene 1)", "reagent no.": 2, "total luciferase, z-score": -0.84}
{"target": "NSFP1 (N-ethylmaleimide-sensitive factor pseudogene 1)", "reagent no.": 3, "total luciferase, z-score": -0.426}
{"target": "SEMA4C (semaphorin 4C)", "reagent no.": 1, "total luciferase, z-score": -0.0128}
{"target": "SEMA4C (semaphorin 4C)", "reagent no.": 2, "total luciferase, z-score": 1.86}
{"target": "SEMA4C (semaphorin 4C)", "reagent no.": 3, "total luciferase, z-score": 0.569}
{"target": "ARSG (arylsulfatase G)", "reagent no.": 1, "total luciferase, z-score": 0.426}
{"target": "ARSG (arylsulfatase G)", "reagent no.": 2, "total luciferase, z-score": -1.1}
{"target": "ARSG (arylsulfatase G)", "reagent no.": 3, "total luciferase, z-score": 0.0615}
{"target": "GCSAML (germinal center associated signaling and motility like)", "reagent no.": 1, "total luciferase, z-score": "3.23 (active)"}
{"target": "GCSAML (germinal center associated signaling and motility like)", "reagent no.": 2, "total luciferase, z-score": -0.873}
{"target": "GCSAML (germinal center associated signaling and motility like)", "reagent no.": 3, "total luciferase, z-score": -0.563}
{"target": "EVX1 (even-skipped homeobox 1)", "reagent no.": 1, "total luciferase, z-score": -0.195}
{"target": "EVX1 (even-skipped homeobox 1)", "reagent no.": 2, "total luciferase, z-score": -1.16}
{"target": "EVX1 (even-skipped homeobox 1)", "reagent no.": 3, "total luciferase, z-score": 0.143}
{"target": "ANHX (anomalous homeobox)", "reagent no.": 1, "total luciferase, z-score": 0.478}
{"target": "ANHX (anomalous homeobox)", "reagent no.": 2, "total luciferase, z-score": 0.544}
{"target": "ANHX (anomalous homeobox)", "reagent no.": 3, "total luciferase, z-score": -0.354}
{"target": "TEX9 (testis expressed 9)", "reagent no.": 1, "total luciferase, z-score": -1.34}
{"target": "TEX9 (testis expressed 9)", "reagent no.": 2, "total luciferase, z-score": -0.485}
{"target": "TEX9 (testis expressed 9)", "reagent no.": 3, "total luciferase, z-score": 0.228}

The list goes on (3 carried over from the part before).
{"target": "TEX9 (testis expressed 9)", "reagent no.": 1, "total luciferase, z-score": -1.34}
{"target": "TEX9 (testis expressed 9)", "reagent no.": 2, "total luciferase, z-score": -0.485}
{"target": "TEX9 (testis expressed 9)", "reagent no.": 3, "total luciferase, z-score": 0.228}
{"target": "SPHKAP (SPHK1 interactor, AKAP domain containing)", "reagent no.": 1, "total luciferase, z-score": -2.11}
{"target": "SPHKAP (SPHK1 interactor, AKAP domain containing)", "reagent no.": 2, "total luciferase, z-score": 0.616}
{"target": "SPHKAP (SPHK1 interactor, AKAP domain containing)", "reagent no.": 3, "total luciferase, z-score": 0.81}
{"target": "LMO7 (LIM domain 7)", "reagent no.": 1, "total luciferase, z-score": "3.74 (active)"}
{"target": "LMO7 (LIM domain 7)", "reagent no.": 2, "total luciferase, z-score": 2.02}
{"target": "LMO7 (LIM domain 7)", "reagent no.": 3, "total luciferase, z-score": 0.0137}
{"target": "ZNF800 (zinc finger protein 800)", "reagent no.": 1, "total luciferase, z-score": -0.855}
{"target": "ZNF800 (zinc finger protein 800)", "reagent no.": 2, "total luciferase, z-score": -2.61}
{"target": "ZNF800 (zinc finger protein 800)", "reagent no.": 3, "total luciferase, z-score": 0.848}
{"target": "ZNF213 (zinc finger protein 213)", "reagent no.": 1, "total luciferase, z-score": "3.67 (active)"}
{"target": "ZNF213 (zinc finger protein 213)", "reagent no.": 2, "total luciferase, z-score": 2.93}
{"target": "ZNF213 (zinc finger protein 213)", "reagent no.": 3, "total luciferase, z-score": 0.257}
